PubChem BioAssay AID1508597 | Cure First | 2020

Assay: 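Survival screen with siRNA in ovarian cancer cells derived from patients, with or without rucaparib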 (primary screen)
System: human ovarian carcinoma lines grown from tumours: OCI-P5x (papillary serous) and OCI-C5x (clear cell)
Reagents: siRNA pool against human genes, 1.25 pmol siRNA per well
Timing: 72 h or 96 h, depending on the cell culture
Conditions: rucaparib 20 µM (about IC30) or vehicle, present until read-out
Rucaparib or vehicle: Rucaparib
Cell line: OCI-P5x (serous)
Detection: 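Luminescent ATP-based viability assay read 72 or 96 h after transfection, depending on culture, given as normalised percent viability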
Reading the numbers: viability, normalised: higher = more viable cells remaining
Hit rule: 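a well counts as a hit if its normalised viability is under 80 percent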
Calls: active = viability under 80%; inactive = viability 80% or more
Shown is an unselected part of the about 2,100 reagents, in one setting of the screen. 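Calls flag viability under 80% in either arm, not effects specific to rucaparib; the reference for percent is not stated.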 Unmarked entries are inactive. Reagent sequences are not shown. Not given: the 100% reference.

gene knocked down	technical replicate	viability, normalised (%)
ESR1	1	44.9 (active)
ESR1	2	61.5 (active)
ESR1	3	54.4 (active)
MYLK2	1	85.9
MYLK2	2	87.6
MYLK2	3	78.5 (active)
ENOSF1	1	88.6
ENOSF1	2	113
ENOSF1	3	120
CHUK	1	66.7 (active)
CHUK	2	62.6 (active)
CHUK	3	58.7 (active)
RPIA	1	81.7
RPIA	2	95.6
RPIA	3	83.9
CSF1R	1	75.7 (active)
CSF1R	2	112
CSF1R	3	97.8
NPR2	1	114
NPR2	2	113
NPR2	3	90
FAAP24	1	77.6 (active)
FAAP24	2	77 (active)
FAAP24	3	71.9 (active)

Quoted from above (2 entries):
gene knocked down	technical replicate	viability, normalised (%)
ENOSF1	3	120
CHUK	1	66.7 (active)

The results go on:
gene knocked down	technical replicate	viability, normalised (%)
NBL1	1	93
NBL1	2	64.8 (active)
NBL1	3	85.2
MTA2	1	43 (active)
MTA2	2	60.6 (active)
MTA2	3	50.5 (active)
BMI1	1	90.5
BMI1	2	88.5
BMI1	3	104
SRMS	1	87
SRMS	2	117
SRMS	3	93.7
CERKL	1	71.9 (active)
CERKL	2	69.1 (active)
CERKL	3	85
